{
  "sequences": {"note": "The chains behind the UniProt entries cited, without tags or fusion partners. Where a name states a change or a piece, a line headed by the entry shows the natural chain unless it says otherwise.", "UniProt Q86V88": "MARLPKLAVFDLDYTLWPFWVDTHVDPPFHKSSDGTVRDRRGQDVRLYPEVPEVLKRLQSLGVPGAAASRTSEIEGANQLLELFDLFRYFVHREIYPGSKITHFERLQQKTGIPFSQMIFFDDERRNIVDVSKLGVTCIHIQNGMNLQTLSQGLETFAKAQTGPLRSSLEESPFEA", "UniProt Q8IWL3": "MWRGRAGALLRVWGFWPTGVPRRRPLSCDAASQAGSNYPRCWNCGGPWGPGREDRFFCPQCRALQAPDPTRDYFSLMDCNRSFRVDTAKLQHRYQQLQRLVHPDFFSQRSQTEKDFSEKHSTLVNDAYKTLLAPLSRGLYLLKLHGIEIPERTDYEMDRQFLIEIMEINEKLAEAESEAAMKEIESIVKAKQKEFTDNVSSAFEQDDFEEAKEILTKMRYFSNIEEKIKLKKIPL", "UniProt Q8IYJ3": "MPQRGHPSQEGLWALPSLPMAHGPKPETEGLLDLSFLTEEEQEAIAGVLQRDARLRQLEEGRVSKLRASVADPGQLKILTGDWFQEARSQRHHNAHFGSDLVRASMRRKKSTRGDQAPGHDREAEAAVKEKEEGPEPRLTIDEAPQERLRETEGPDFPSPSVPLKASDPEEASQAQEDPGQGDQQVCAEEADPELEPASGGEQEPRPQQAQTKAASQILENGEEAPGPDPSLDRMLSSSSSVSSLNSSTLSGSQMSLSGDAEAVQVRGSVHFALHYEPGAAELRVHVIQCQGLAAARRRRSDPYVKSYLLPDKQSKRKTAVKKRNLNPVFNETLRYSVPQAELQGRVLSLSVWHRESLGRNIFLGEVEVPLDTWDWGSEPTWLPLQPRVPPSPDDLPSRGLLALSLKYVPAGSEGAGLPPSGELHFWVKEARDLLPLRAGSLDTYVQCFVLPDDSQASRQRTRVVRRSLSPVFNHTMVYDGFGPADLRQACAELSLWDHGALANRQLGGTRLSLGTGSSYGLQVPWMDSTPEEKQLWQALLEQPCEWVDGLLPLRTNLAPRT", "UniProt Q8IZH2": "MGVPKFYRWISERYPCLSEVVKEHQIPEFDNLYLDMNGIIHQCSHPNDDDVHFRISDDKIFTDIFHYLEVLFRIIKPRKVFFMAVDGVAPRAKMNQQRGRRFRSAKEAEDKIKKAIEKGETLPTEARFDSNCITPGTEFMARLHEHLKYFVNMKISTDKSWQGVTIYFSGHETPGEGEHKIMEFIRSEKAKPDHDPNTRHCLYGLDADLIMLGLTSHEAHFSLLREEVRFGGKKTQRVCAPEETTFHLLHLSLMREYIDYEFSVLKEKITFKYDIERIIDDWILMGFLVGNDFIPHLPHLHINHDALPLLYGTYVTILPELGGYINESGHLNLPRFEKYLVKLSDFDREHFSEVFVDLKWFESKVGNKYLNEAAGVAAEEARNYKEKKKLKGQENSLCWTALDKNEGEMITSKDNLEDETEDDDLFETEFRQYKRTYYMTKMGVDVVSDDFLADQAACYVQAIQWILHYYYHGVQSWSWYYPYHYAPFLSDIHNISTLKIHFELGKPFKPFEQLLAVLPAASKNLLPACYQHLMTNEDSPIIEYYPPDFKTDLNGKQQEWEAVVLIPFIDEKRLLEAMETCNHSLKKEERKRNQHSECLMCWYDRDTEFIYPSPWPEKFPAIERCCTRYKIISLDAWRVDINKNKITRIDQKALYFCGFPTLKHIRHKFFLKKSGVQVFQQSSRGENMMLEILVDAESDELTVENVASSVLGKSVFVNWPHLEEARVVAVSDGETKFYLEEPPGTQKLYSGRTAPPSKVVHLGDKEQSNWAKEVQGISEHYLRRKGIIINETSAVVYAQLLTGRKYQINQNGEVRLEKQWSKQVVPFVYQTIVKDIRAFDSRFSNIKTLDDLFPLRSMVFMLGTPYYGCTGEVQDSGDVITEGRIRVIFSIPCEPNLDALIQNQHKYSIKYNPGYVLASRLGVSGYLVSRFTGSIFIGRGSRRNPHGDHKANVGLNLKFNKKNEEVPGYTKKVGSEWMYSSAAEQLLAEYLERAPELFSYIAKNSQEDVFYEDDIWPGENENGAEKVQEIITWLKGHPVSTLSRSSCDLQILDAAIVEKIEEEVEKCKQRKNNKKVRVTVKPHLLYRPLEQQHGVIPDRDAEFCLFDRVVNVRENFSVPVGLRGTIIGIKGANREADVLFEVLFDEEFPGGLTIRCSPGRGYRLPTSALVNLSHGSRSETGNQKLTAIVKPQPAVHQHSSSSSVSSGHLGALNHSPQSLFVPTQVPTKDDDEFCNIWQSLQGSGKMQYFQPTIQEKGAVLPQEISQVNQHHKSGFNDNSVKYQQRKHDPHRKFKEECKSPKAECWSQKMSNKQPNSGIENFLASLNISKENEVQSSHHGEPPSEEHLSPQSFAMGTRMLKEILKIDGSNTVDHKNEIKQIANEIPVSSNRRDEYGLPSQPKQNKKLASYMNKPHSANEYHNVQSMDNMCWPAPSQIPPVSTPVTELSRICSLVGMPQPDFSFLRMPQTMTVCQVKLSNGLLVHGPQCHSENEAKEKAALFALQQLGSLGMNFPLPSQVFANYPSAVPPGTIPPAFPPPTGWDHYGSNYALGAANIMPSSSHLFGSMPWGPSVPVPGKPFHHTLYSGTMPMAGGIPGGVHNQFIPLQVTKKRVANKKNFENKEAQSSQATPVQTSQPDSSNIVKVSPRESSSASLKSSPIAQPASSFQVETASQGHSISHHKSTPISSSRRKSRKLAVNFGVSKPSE", "UniProt Q8IXS8": "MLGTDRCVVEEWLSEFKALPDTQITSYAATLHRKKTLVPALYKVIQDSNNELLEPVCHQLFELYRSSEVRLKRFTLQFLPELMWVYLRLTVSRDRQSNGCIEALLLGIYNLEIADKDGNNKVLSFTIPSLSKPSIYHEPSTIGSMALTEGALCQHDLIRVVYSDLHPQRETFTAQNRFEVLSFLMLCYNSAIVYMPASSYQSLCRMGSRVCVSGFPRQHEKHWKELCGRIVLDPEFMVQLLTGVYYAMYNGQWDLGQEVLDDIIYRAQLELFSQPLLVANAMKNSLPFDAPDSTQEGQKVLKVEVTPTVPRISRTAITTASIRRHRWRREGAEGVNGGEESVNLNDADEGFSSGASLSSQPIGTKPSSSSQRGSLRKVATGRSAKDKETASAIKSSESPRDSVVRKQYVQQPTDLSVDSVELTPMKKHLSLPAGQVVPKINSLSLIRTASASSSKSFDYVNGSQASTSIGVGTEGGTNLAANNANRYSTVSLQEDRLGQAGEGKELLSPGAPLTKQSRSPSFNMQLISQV", "UniProt Q86Y07": "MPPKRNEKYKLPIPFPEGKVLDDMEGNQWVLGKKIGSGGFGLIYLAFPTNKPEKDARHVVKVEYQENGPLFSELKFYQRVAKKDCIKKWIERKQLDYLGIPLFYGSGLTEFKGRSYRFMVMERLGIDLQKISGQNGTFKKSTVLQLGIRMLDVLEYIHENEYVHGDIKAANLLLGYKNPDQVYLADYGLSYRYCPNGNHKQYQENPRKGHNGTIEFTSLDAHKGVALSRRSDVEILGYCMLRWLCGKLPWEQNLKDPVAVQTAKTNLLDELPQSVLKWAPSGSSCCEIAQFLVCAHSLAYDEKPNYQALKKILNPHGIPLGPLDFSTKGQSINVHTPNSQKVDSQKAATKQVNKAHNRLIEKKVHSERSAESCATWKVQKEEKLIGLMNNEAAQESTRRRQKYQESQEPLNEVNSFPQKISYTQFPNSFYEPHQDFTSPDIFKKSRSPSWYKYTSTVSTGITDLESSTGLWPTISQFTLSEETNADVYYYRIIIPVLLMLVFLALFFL", "UniProt Q86VX2, whole entry": "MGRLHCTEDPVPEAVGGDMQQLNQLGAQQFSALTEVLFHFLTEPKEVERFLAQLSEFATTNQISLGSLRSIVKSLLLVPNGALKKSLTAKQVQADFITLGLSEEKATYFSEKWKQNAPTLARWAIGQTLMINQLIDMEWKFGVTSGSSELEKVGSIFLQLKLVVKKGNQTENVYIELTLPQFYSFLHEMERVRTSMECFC", "UniProt Q8IUD2": "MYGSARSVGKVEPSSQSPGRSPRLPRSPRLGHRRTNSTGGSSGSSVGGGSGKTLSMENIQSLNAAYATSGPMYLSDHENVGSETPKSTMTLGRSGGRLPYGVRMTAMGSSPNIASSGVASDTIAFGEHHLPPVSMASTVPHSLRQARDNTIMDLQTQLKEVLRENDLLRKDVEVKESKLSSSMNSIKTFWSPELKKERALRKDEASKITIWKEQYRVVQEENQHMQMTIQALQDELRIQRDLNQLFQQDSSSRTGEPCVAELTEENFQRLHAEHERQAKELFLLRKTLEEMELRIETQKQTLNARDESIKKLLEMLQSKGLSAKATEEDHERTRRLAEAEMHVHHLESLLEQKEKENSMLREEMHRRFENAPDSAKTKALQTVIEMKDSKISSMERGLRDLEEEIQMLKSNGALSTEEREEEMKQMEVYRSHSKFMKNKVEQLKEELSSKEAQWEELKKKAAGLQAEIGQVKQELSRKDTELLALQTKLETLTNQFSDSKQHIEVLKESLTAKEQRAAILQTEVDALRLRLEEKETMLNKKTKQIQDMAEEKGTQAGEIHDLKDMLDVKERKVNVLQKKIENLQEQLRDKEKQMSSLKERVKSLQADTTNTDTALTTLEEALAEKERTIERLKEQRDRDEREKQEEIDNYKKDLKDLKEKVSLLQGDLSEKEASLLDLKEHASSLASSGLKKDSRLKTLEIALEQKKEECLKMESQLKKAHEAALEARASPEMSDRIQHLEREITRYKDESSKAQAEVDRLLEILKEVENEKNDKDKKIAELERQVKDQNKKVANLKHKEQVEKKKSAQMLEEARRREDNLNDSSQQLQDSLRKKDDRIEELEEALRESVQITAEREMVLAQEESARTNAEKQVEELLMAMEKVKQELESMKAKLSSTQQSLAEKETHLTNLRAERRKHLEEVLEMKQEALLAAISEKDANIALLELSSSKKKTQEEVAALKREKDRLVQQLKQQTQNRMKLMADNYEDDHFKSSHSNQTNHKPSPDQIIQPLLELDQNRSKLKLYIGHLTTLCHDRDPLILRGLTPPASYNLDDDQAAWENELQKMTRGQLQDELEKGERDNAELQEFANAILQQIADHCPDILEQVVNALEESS"},
  "source": "the supplement of paper PMC12819154",
  "about": "“High-throughput peptide-centric local stability assay extends protein–ligand identification to membrane proteins, tissues and bacteria” (Nature Structural & Molecular Biology, 2025)",
  "note": "The other results are listed elsewhere or left out. Most values lie at the level of the controls, where differences are scatter.",
  "data": [
    {"compound": "Cc1nc(Nc2ncc(C(=O)Nc3c(C)cccc3Cl)s2)cc(N2CCN(CCO)CC2)n1 [dasatinib]", "experiment": "log2 fold change of tryptic peptide abundance, ligand vs vehicle (limited proteolysis) (log2 ratio); higher = more trypsin-susceptible (destabilized)", "conditions": "ligand concentration: 5 uM; sample: K562 cleared lysate", "values": [
      {"target": "MGA (peptide sequence: YPHEVPDSKPSDHLK, peptide start residue: 2671) (UniProt Q8IWI9)", "log2 fold change": -0.646},
      {"target": "MDP1 (peptide sequence: LQSLGVPGAAASR, peptide start residue: 58) (UniProt Q86V88)", "log2 fold change": 0.0434},
      {"target": "HSCB (peptide sequence: SQTEKDFSEK, peptide start residue: 110) (UniProt Q8IWL3)", "log2 fold change": 0.257},
      {"target": "SYTL1 (peptide sequence: LTIDEAPQER, peptide start residue: 139) (UniProt Q8IYJ3)", "log2 fold change": 0.258},
      {"target": "XRN1 (peptide sequence: EILKIDGSNTVDHKNEIK, peptide start residue: 1361) (UniProt Q8IZH2)", "log2 fold change": 0.759},
      {"target": "FAM126B (peptide sequence: YSTVSLQEDR, peptide start residue: 487) (UniProt Q8IXS8)", "log2 fold change": 0.115},
      {"target": "KMT2E (peptide sequence: ALLLSDHR, peptide start residue: 1269) (UniProt Q8IZD2)", "log2 fold change": -0.192},
      {"target": "VRK2 (peptide sequence: STVLQLGIR, peptide start residue: 141) (UniProt Q86Y07)", "log2 fold change": -0.583},
      {"target": "COMMD7 (peptide sequence: VRTSMECFC, peptide start residue: 192) (UniProt Q86VX2)", "log2 fold change": -0.28},
      {"target": "ERC1 (peptide sequence: AAGLQAEIGQVK, peptide start residue: 461) (UniProt Q8IUD2)", "log2 fold change": 0.382}
    ]}
  ]
}
